# In the supplement of paper PMC8616043:
# Counter-ions that a name gives are not always drawn. This is one part of the list. Single values are uncertain here, since repeats match poorly.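 Human U-2 OS cells stably expressing a GFP sensor with a nuclear import signal and classical export signal were transfected to produce PR50, a 50-repeat proline–arginine dipeptide from ALS/FTD gene C9ORF72. Nuclear-minus-cytoplasm GFP was scaled from DMSO (low) to PR-only (high), scored against plate test wells; strongly negative scores marked PR-reversing hits.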
# Tested on: U-2 OS NCT-C biosensor cells expressing PR50
# Assay: Z-score of normalised NCT-C biosensor translocation index in PR50-expressing cells; higher = more nuclear biosensor (more disrupted nuclear export)
# Conditions: 3 µM; 24 h
row,Structure (SMILES),Z-score
1,C[C@H]1[C@H](OC(=O)CCC(=O)O)O[C@@H]2O[C@@]3(C)CC[C@H]4[C@H](C)CC[C@@H]1[C@@]24OO3 [Artesunate],inactive: -0.667
2,O=C(O)CCNC(=O)c1ccc(/N=N/c2ccc(O)c(C(=O)O)c2)cc1 [Balsalazide],inactive: -0.29
3,C[n+]1ccccc1/C=N/O [Pralidoxime Chloride],inactive: -0.275
4,CCC(C)n1ncn(-c2ccc(N3CCN(c4ccc(OCC5COC(Cn6cncn6)(c6ccc(Cl)cc6Cl)O5)cc4)CC3)cc2)c1=O (configuration not stated) [Itraconazole],inactive: -0.0153
5,Cc1cccc(Nc2ccccc2C(=O)O)c1C [Mefenamic Acid],inactive: 0.159
6,"O=c1cc(-c2ccc(O)c(O[C@@H]3O[C@H](CO)[C@@H](O)[C@H](O)[C@H]3O)c2)oc2cc(O[C@@H]3O[C@H](CO)[C@@H](O)[C@H](O)[C@H]3O)cc(O)c12 [Luteolin-3',7-diglucoside]",inactive: 0.0284
7,Cc1ccsc1C(=CCCN1CCC[C@@H](C(=O)O)C1)c1sccc1C [Tiagabine·HCl],inactive: -0.699
8,O=C1CCC(N2C(=O)c3ccccc3C2=O)C(=O)N1 (configuration not stated) [Thalidomide],inactive: 0.842
9,CCCCc1nc(Cl)c(CO)n1Cc1ccc(-c2ccccc2-c2nnn[nH]2)cc1 [Losartan Potassium],inactive: 0.544
10,CC1(C)S[C@@H]2[C@H](NC(=O)Cc3ccccc3)C(=O)N2[C@H]1C(=O)O [Penicillin G Potassium (Benzylpenicillin)],inactive: -0.395
11,Cc1nc2n(c(=O)c1CCN1CCC(c3noc4cc(F)ccc34)CC1)CCCC2O (configuration not stated) [Paliperidone],inactive: -0.232
12,CC(=O)OCC1=C(C(=O)O)N2C(=O)[C@@H](NC(=O)Cc3cccs3)[C@H]2SC1 [Cephalothin sodium salt],inactive: 0.0169
13,Clc1ccc(C(Cn2ccnc2)OCc2csc3c(Cl)cccc23)c(Cl)c1 (configuration not stated) [Sertaconazole],inactive: -0.424
14,Clc1ccc(C(Cn2ccnc2)OCc2csc3c(Cl)cccc23)c(Cl)c1 (configuration not stated) [Sertaconazole nitrate],inactive: 1.84
15,COc1c(O)c2c(=O)cc(OC)c3c4c(OC)cc(=O)c5c(O)c(OC)c6c(c(c1CC(C)=C6C(C)=O)c23)c54 [Hypocrellin B],inactive: -0.849
16,Cc1cc(C)nc(SCC(=O)Nc2ncc(Cc3cccc4ccccc34)s2)n1,inactive: -0.0432
17,COCC(=O)O[C@]1(CCN(C)CCCc2nc3ccccc3[nH]2)CCc2cc(F)ccc2[C@@H]1C(C)C [Mibefradil dihydrochloride],inactive: -0.45
18,CCC(=O)OCC(=O)[C@@]1(OC(=O)CC)[C@@H](C)C[C@H]2[C@@H]3CCC4=CC(=O)C=C[C@]4(C)[C@@]3(Cl)[C@@H](O)C[C@@]21C [Beclomethasone Dipropionate],inactive: -0.337
19,CN(C)c1ccccc1CN1CCCN(Cc2ccccc2N(C)C)C1c1ccncc1,inactive: -0.606
20,OC[C@H]1O[C@@H](n2cnc3c2N=CNC[C@H]3O)C[C@@H]1O [Pentostatin],inactive: -0.0923
21,O=c1c2ccccc2nc2n1CCc1c-2[nH]c2ccccc12 [Rutaecarpine],inactive: -0.703
22,O=C(/C=C/C=C/c1ccc2c(c1)OCO2)N1CCCCC1 [Piperine],inactive: -0.314
23,COc1nc(N)nc2c1ncn2[C@@H]1O[C@H](CO)[C@@H](O)[C@@H]1O [Nelarabine],inactive: 0.228

row,Structure (SMILES),Z-score
1,O=C(CCCN1CCC(O)(c2cccc(C(F)(F)F)c2)CC1)c1ccc(F)cc1 [Trifluperidol hydrochloride],inactive: -0.0977
2,COc1ccccc1N1CCN(CCCNc2cc(=O)n(C)c(=O)n2C)CC1 [Urapidil hydrochloride],inactive: -0.637
3,CCCCCCCCCCCCCCSCC(=O)O [Tetradecylthioacetic acid],inactive: -1.37
4,C#CCN(C)CCCOc1ccc(Cl)cc1Cl [Clorgyline hydrochloride],inactive: -0.975
5,O=C(O)CN(CCN(CC(=O)O)CC(=O)O)CCN(CC(=O)O)CC(=O)O [Diethylenetriamine pentaacetic acid],inactive: -0.524
6,CC(C)(CO)Cc1cc(C(C)(C)C)c(O)c(C(C)(C)C)c1,inactive: 1.99
7,CC(C)NCC(O)c1cc(O)cc(O)c1 (configuration not stated) [Metaproterenol Hemisulfate (Orciprenaline)],inactive: 0.383
8,CC(C)NCC(O)c1cc(O)cc(O)c1 (configuration not stated) [Metaproterenol hemisulfate],inactive: -0.869
9,CC(C(=O)Nc1cccc(/N=C/c2c(O)ccc3ccccc23)c1)c1ccccc1 (configuration not stated) [Salermide],active: -2.34
10,O=[N+]([O-])c1cc2nc(O)c(O)nc2cc1[N+](=O)[O-],inactive: 1.04
11,"CC(=O)/C(C)=N/O [2,3-Butanedione monoxime]",inactive: 0.622
12,O=C1[C@H](CC[C@H](O)c2ccc(F)cc2)[C@@H](c2ccc(O)cc2)N1c1ccc(F)cc1 [Ezetimibe],inactive: -0.0882
13,O=C(O)c1cccc(-c2ccc(-c3cn(C(=O)N4CCCCC4Cc4ccccc4)nn3)cc2)c1 (configuration not stated),inactive: 2.44
14,Cc1cnc(C(=O)NCCc2ccc(S(=O)(=O)NC(=O)NC3CCCCC3)cc2)cn1 [Glipizide],inactive: -0.27
15,O=C(O)COCCN1CCN([C@H](c2ccccc2)c2ccc(Cl)cc2)CC1 [Levocetirizine Dihydrochloride],inactive: 0.103
16,CC(O)(P(=O)(O)O)P(=O)(O)O [Etidronate Disodium],inactive: 0.704
17,CCCCNc1ccc(C(=O)OCCN(C)C)cc1 [Tetracaine hydrochloride],inactive: -0.597
18,CCCCCOC(=O)Nc1nc(=O)n([C@@H]2O[C@H](C)[C@@H](O)[C@H]2O)cc1F [Capecitabine],inactive: 0.365
19,COc1ccc2c(c1)CC[C@@H]1[C@@H]2CC[C@]2(C)[C@@H](NCCCCCCN3C(=O)CCC3=O)CC[C@@H]12,inactive: 0.374
20,CC(C)=CCC/C(C)=C/CC/C(C)=C/CSc1ccccc1C(=O)O [Salirasib],inactive: 0.462
21,CCN(CC)CCOc1ccc(C(=C(Cl)c2ccccc2)c2ccccc2)cc1 [Clomiphene Citrate],inactive: 0.343
22,Cc1ccc(C=Nc2ccccc2C(=O)Nc2ccccc2)s1 [Retro-2],inactive: -0.439
23,C[C@H](CSC(=O)c1ccccc1)C(=O)N1C[C@@H](Sc2ccccc2)C[C@H]1C(=O)O [Zofenopril calcium],inactive: -0.0375

row,Structure (SMILES),Z-score
1,N=C(N)NCCCCN [Agmatine sulfate],inactive: 0.209
2,O=C1C(O)=C([C@H]2CC[C@H](c3ccc(Cl)cc3)CC2)C(=O)c2ccccc21 [Atovaquone],inactive: -0.478
3,"CC(C)NCC(O)c1ccc(O)c(O)c1 (single isomer, unassigned; (-)) [(-)-Isoproterenol hydrochloride]",inactive: 0.0377
4,Cc1ccccc1C(OCCN(C)C)c1ccccc1 (configuration not stated) [Orphenadrine Citrate],inactive: 1.09
5,Cc1ccccc1C(OCCN(C)C)c1ccccc1 (configuration not stated) [Orphenadrine hydrochloride],inactive: 0.227
6,NCCCC(N)(C(=O)O)C(F)F (configuration not stated) [Eflornithine·HCl],inactive: 0.127
7,COc1c2ccoc2cc2oc(=O)ccc12 [Bergapten],inactive: 1.26
8,O=C1CCc2ccc(OCCCCN3CCN(c4cccc(Cl)c4Cl)CC3)cc2N1 [Aripiprazole],inactive: 0.0855
9,CN(C)CCOC(c1ccc(Cl)cc1)c1ccccn1 (configuration not stated) [Carbinoxamine Maleate],inactive: -0.177
10,COC(=O)C1=C(C)NC(C)=C(C(=O)OCC(C)C)C1c1ccccc1[N+](=O)[O-] (configuration not stated) [Nisoldipine],inactive: 0.278
11,COc1ccc([C@@H]2OC[C@@H]3[C@H]2CO[C@H]3c2ccc(OC)c(OC)c2)cc1OC [Eudesmine],inactive: -0.306
12,CC(C(=O)O)c1ccc(C(=O)c2cccs2)cc1 (configuration not stated) [Suprofen],inactive: -0.89
13,COc1cc2ncnc(Nc3ccc(F)c(Cl)c3)c2cc1OCCCN1CCOCC1 [Gefitinib],inactive: -1.28
14,CN1CCC[C@@H]1CCO[C@](C)(c1ccccc1)c1ccc(Cl)cc1 [Clemastine fumarate salt],inactive: -0.498
15,CN1CCC[C@@H]1CCO[C@](C)(c1ccccc1)c1ccc(Cl)cc1 [Clemastine Fumarate],inactive: 1.65
16,CC(C)[C@H](N)C(=O)OCC(CO)OCn1cnc2c(=O)[nH]c(N)nc21 (some centres not stated) [Valganciclovir hydrochloride hydrate],inactive: -0.213
17,O=C(c1ccc(OCCCc2c[nH]cn2)cc1)C1CC1 [Ciproxifan hydrochloride],inactive: -0.782
18,CC[C@@H]([C@H](C)O)n1ncn(-c2ccc(N3CCN(c4ccc(OC[C@@H]5CO[C@@](Cn6cncn6)(c6ccc(F)cc6F)C5)cc4)CC3)cc2)c1=O [Posaconazole],inactive: -0.407
19,CCCCC[C@H](O)/C=C/[C@H]1[C@H](O)CC(=O)[C@@H]1CCCCCCC(=O)O [Prostaglandin E1],inactive: -1.49
20,CCCCC[C@H](O)/C=C/[C@H]1[C@H](O)CC(=O)[C@@H]1CCCCCCC(=O)O [Alprostadil],inactive: 0.296
21,O=C(O)c1cccnc1C(=O)O [Quinolinic acid],inactive: -0.0352

# 4 entries drawn at random from the list so far:
row,Structure (SMILES),Z-score
18,CC[C@@H]([C@H](C)O)n1ncn(-c2ccc(N3CCN(c4ccc(OC[C@@H]5CO[C@@](Cn6cncn6)(c6ccc(F)cc6F)C5)cc4)CC3)cc2)c1=O [Posaconazole],inactive: -0.407
13,COc1cc2ncnc(Nc3ccc(F)c(Cl)c3)c2cc1OCCCN1CCOCC1 [Gefitinib],inactive: -1.28
12,CC(C(=O)O)c1ccc(C(=O)c2cccs2)cc1 (configuration not stated) [Suprofen],inactive: -0.89
21,O=C(O)c1cccnc1C(=O)O [Quinolinic acid],inactive: -0.0352
